US20020114734A1, “Microplate thermal shift assay apparatus for ligand development and multi-variable protein chemistry optimization” (priority 1996, published 2002)
Part of at least one peptide drawing is inferred or uncertain, most often the ends. Where no end group is shown, it is not given here.

Protein sequences, listed by entry. Tags and fused reporters are not part of them.
UniProt P05230, whole entry, species assumed: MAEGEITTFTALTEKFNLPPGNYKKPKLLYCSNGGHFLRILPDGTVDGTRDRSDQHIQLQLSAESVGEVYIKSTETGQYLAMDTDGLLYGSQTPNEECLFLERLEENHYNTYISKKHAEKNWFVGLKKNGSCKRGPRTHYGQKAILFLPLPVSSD

Biological target: T1, acidic fibroblast growth factor (aFGF) (Homo sapiens, UniProt P05230)
T1 construct: host or cells: E. coli
Assay: Microplate thermal shift assay for ligands binding to aFGF, turbidity as signal
Conditions: aFGF/ligand, aFGF 0.25 mg/mL, ligand 47-200 μM
Excerpt: The second therapeutic receptor tested in the microplate thermal shift assay was acidic fibroblast growth factor (aFGF), a growth factor that plays a key role in angiogenesis (Folkman, J. et al., J. Biol. Chem. 267:10931-10934 (1992)). A synthetic gene for this protein was purchased from R&D Systems (Minneapolis, Minn.), and was cloned and expressed in E. coli using methods similar to those described for basic fibroblast growth factor (bFGF) (Thompson, L. D. et al., Biochemistry 33:3831-3840 (1994); Pantoliano, M. W. et al., Biochemistry 33:10229-10248 (1994); Springer, B. A. et al., J. Biol. Chem. 269:26879-26884 (1994)). Recombinant aFGF was then purified by heparin-sepharose affinity chromatography as described (Thompson, L. D. et al., Biochemistry 33:3831-3840 (1994)). aFGF is also known to bind heparin/heparan, which is a cofactor for mitogenic activity. […] A microplate thermal assay of these compounds was set up in a way similar to that described above for human α-thrombin. […] The affinity constants covered a fairly broad range of binding affinities, with pentosan PSO4 showing the highest affinity.

Sequence: EEEEEEEE
- Tm: 322.15 ° K
